Taken from: PubChem BioAssay AID1259405 (NCATS, 2018)

Screen: 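Knock-downs that lift recombinant protein yield in hamster ovary cells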 (primary screen)
Cells: Chinese hamster CHO-K1 ovary cells with stable secreted eGFP expression
Reagent: single siRNA against mouse genes, 0.8 pmol siRNA per well (2 µl of 400 nM stock)
Time to read-out: 3 days
Detection: 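Percent of the per-plate non-targeting control median for intracellular GFP per well by laser scanning cytometry and for cell viability by ATP luminescence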
Reading the numbers: GFP, % of control: higher = more GFP per well, higher productivity; viability (ATP), % of control: higher = more viable cells (more ATP)
Rule for the call: 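Called active when intracellular GFP, relative to negative control, is at or above 120%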
Shown is an unselected part of about 50,000 reagents. About 4,000 of them (8%) were called active. 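Mouse siRNA library applied to hamster cells; one well for each siRNA.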 Reagents against one gene are numbered here.

| Target gene | siRNA no. | GFP, % of control | viability (ATP), % of control | call |
| --- | --- | --- | --- | --- |
| Bltp3b (bridge-like lipid transfer protein family member 3B) | 1 | 118 | 81.9 | inactive |
| Bltp3b (bridge-like lipid transfer protein family member 3B) | 2 | 99.2 | 81 | inactive |
| Bltp3b (bridge-like lipid transfer protein family member 3B) | 3 | 69.1 | 94.3 | inactive |
| Morc2a (microrchidia 2A) | 1 | 77.6 | 55.1 | inactive |
| Morc2a (microrchidia 2A) | 2 | 74.4 | 62.7 | inactive |
| Morc2a (microrchidia 2A) | 3 | 83.5 | 97.3 | inactive |
| Erc1 (ELKS/RAB6-interacting/CAST family member 1) | 1 | 106 | 66.8 | inactive |
| Erc1 (ELKS/RAB6-interacting/CAST family member 1) | 2 | 78.9 | 81 | inactive |
| Erc1 (ELKS/RAB6-interacting/CAST family member 1) | 3 | 59.2 | 53.7 | inactive |
| Or52s19 (olfactory receptor family 52 subfamily S member 19) | 1 | 78.4 | 64 | inactive |
| Or52s19 (olfactory receptor family 52 subfamily S member 19) | 2 | 82.4 | 41.8 | inactive |
| Or52s19 (olfactory receptor family 52 subfamily S member 19) | 3 | 45.2 | 82 | inactive |
| Mea1 (male enhanced antigen 1) | 1 | 58.1 | 38.6 | inactive |
| Mea1 (male enhanced antigen 1) | 2 | 107 | 102 | inactive |
| Mea1 (male enhanced antigen 1) | 3 | 83.1 | 61 | inactive |
| Bop1 (block of proliferation 1) | 1 | 83.2 | 72.9 | inactive |
| Bop1 (block of proliferation 1) | 2 | 139 | 52.3 | active |
| Bop1 (block of proliferation 1) | 3 | 173 | 98.4 | active |
| Ddb1 (damage specific DNA binding protein 1) | 1 | 118 | 77.6 | inactive |
| Ddb1 (damage specific DNA binding protein 1) | 2 | 87.3 | 86.2 | inactive |
| Ddb1 (damage specific DNA binding protein 1) | 3 | 44.3 | 53.6 | inactive |
| Sh3gl2 (SH3-domain GRB2-like 2) | 1 | 104 | 85 | inactive |
| Sh3gl2 (SH3-domain GRB2-like 2) | 2 | 80.9 | 75.4 | inactive |
| Sh3gl2 (SH3-domain GRB2-like 2) | 3 | 71.7 | 89.3 | inactive |
| Lalba (lactalbumin, alpha) | 1 | 93.4 | 101 | inactive |
| Lalba (lactalbumin, alpha) | 2 | 42.5 | 76.5 | inactive |
| Lalba (lactalbumin, alpha) | 3 | 99 | 113 | inactive |
| Hdhd5 (haloacid dehalogenase like hydrolase domain containing 5) | 1 | 77.4 | 78.3 | inactive |
| Hdhd5 (haloacid dehalogenase like hydrolase domain containing 5) | 2 | 60.2 | 56.3 | inactive |
| Hdhd5 (haloacid dehalogenase like hydrolase domain containing 5) | 3 | 103 | 130 | inactive |
| Efcab11 (EF-hand calcium binding domain 11) | 1 | 111 | 60.3 | inactive |
| Efcab11 (EF-hand calcium binding domain 11) | 2 | 71 | 66.8 | inactive |
| Efcab11 (EF-hand calcium binding domain 11) | 3 | 81.5 | 59.3 | inactive |
| Sdcbp2 (syndecan binding protein (syntenin) 2) | 1 | 18.6 | 22.3 | inactive |
| Sdcbp2 (syndecan binding protein (syntenin) 2) | 2 | 58.3 | 52.6 | inactive |
| Sdcbp2 (syndecan binding protein (syntenin) 2) | 3 | 54.9 | 49 | inactive |
| Pck2 (phosphoenolpyruvate carboxykinase 2 (mitochondrial)) | 1 | 101 | 73.6 | inactive |
| Pck2 (phosphoenolpyruvate carboxykinase 2 (mitochondrial)) | 2 | 52.8 | 53.5 | inactive |
| Pck2 (phosphoenolpyruvate carboxykinase 2 (mitochondrial)) | 3 | 84 | 87.8 | inactive |
| Crip2 (cysteine rich protein 2) | 1 | 59.7 | 57 | inactive |
| Crip2 (cysteine rich protein 2) | 2 | 95.2 | 105 | inactive |
| Gpd1 (glycerol-3-phosphate dehydrogenase 1 (soluble)) | 1 | 103 | 77 | inactive |
| Gpd1 (glycerol-3-phosphate dehydrogenase 1 (soluble)) | 2 | 77.4 | 76.2 | inactive |
| Gpd1 (glycerol-3-phosphate dehydrogenase 1 (soluble)) | 3 | 76.3 | 64.8 | inactive |
| Mlxipl (MLX interacting protein-like) | 1 | 98.8 | 128 | inactive |
| Mlxipl (MLX interacting protein-like) | 2 | 61.3 | 79.5 | inactive |
| Mlxipl (MLX interacting protein-like) | 3 | 81.2 | 85.4 | inactive |
| Depdc7 (DEP domain containing 7) | 1 | 72.2 | 68.5 | inactive |
| Depdc7 (DEP domain containing 7) | 2 | 110 | 114 | inactive |
| Depdc7 (DEP domain containing 7) | 3 | 111 | 80.4 | inactive |
| Foxb1 (forkhead box B1) | 1 | 102 | 104 | inactive |
| Foxb1 (forkhead box B1) | 2 | 110 | 66.5 | inactive |
| E130006D01Rik (RIKEN cDNA E130006D01 gene) | 1 | 65.5 | 89.8 | inactive |
| E130006D01Rik (RIKEN cDNA E130006D01 gene) | 2 | 77.9 | 60.9 | inactive |
| E130006D01Rik (RIKEN cDNA E130006D01 gene) | 3 | 77.8 | 67.5 | inactive |

6 of these entries in another layout.
{"Target gene": "Lalba (lactalbumin, alpha)", "siRNA no.": 1, "GFP, % of control": 93.4, "viability (ATP), % of control": 101, "call": "inactive"}
{"Target gene": "Lalba (lactalbumin, alpha)", "siRNA no.": 2, "GFP, % of control": 42.5, "viability (ATP), % of control": 76.5, "call": "inactive"}
{"Target gene": "Lalba (lactalbumin, alpha)", "siRNA no.": 3, "GFP, % of control": 99, "viability (ATP), % of control": 113, "call": "inactive"}
{"Target gene": "Hdhd5 (haloacid dehalogenase like hydrolase domain containing 5)", "siRNA no.": 1, "GFP, % of control": 77.4, "viability (ATP), % of control": 78.3, "call": "inactive"}
{"Target gene": "Hdhd5 (haloacid dehalogenase like hydrolase domain containing 5)", "siRNA no.": 2, "GFP, % of control": 60.2, "viability (ATP), % of control": 56.3, "call": "inactive"}
{"Target gene": "Hdhd5 (haloacid dehalogenase like hydrolase domain containing 5)", "siRNA no.": 3, "GFP, % of control": 103, "viability (ATP), % of control": 130, "call": "inactive"}

The list goes on:
| Target gene | siRNA no. | GFP, % of control | viability (ATP), % of control | call |
| --- | --- | --- | --- | --- |
| Or5b109 (olfactory receptor family 5 subfamily B member 109) | 1 | 48.9 | 30.8 | inactive |
| Or5b109 (olfactory receptor family 5 subfamily B member 109) | 2 | 88.8 | 104 | inactive |
| Or5b109 (olfactory receptor family 5 subfamily B member 109) | 3 | 62.2 | 57.2 | inactive |
| Ttc21a (tetratricopeptide repeat domain 21A) | 1 | 87.9 | 99.4 | inactive |
| Ttc21a (tetratricopeptide repeat domain 21A) | 2 | 76 | 81.4 | inactive |
| Ttc21a (tetratricopeptide repeat domain 21A) | 3 | 98.5 | 101 | inactive |
| Fndc11 (fibronectin type III domain containing 11) | 1 | 70.6 | 50.7 | inactive |
| Fndc11 (fibronectin type III domain containing 11) | 2 | 58.7 | 89.4 | inactive |
| Fndc11 (fibronectin type III domain containing 11) | 3 | 88.6 | 65.7 | inactive |
| Prep (prolyl endopeptidase) | 1 | 105 | 90.7 | inactive |
| Prep (prolyl endopeptidase) | 2 | 63.1 | 55.2 | inactive |
| Prep (prolyl endopeptidase) | 3 | 80.1 | 59.5 | inactive |
| Ahcyl2 (S-adenosylhomocysteine hydrolase-like 2) | 1 | 55.1 | 60.3 | inactive |
| Ahcyl2 (S-adenosylhomocysteine hydrolase-like 2) | 2 | 39.9 | 37.3 | inactive |
| Ahcyl2 (S-adenosylhomocysteine hydrolase-like 2) | 3 | 67.3 | 70.2 | inactive |
| Or51i2 (olfactory receptor family 51 subfamily I member 2) | 1 | 86.1 | 85.8 | inactive |
| Or51i2 (olfactory receptor family 51 subfamily I member 2) | 2 | 23.3 | 30.2 | inactive |
| Or51i2 (olfactory receptor family 51 subfamily I member 2) | 3 | 70.2 | 94.7 | inactive |
| Pgghg (protein glucosylgalactosylhydroxylysine glucosidase) | 1 | 59.2 | 53.9 | inactive |
| Pgghg (protein glucosylgalactosylhydroxylysine glucosidase) | 2 | 79.2 | 100 | inactive |
| Pgghg (protein glucosylgalactosylhydroxylysine glucosidase) | 3 | 92.2 | 40.7 | inactive |
| Acy3 (aminoacylase 3) | 1 | 78.7 | 75.5 | inactive |
| Acy3 (aminoacylase 3) | 2 | 116 | 115 | inactive |
| Runx2 (runt related transcription factor 2) | 1 | 65.2 | 72.9 | inactive |
| Runx2 (runt related transcription factor 2) | 2 | 68.1 | 75.4 | inactive |
| Runx2 (runt related transcription factor 2) | 3 | 93.2 | 84.6 | inactive |
| Phf10 (PHD finger protein 10) | 1 | 97.8 | 132 | inactive |
| Phf10 (PHD finger protein 10) | 2 | 79.4 | 88.3 | inactive |
| Ltbp3 (latent transforming growth factor beta binding protein 3) | 1 | 175 | 113 | active |
| Ltbp3 (latent transforming growth factor beta binding protein 3) | 2 | 50.8 | 75.9 | inactive |
